These are yes or no findings as the source states them, for the method shown. In cells and extracts the contact can be indirect. Some results given as binding are weak or reduced against the parent protein; the word gives no strength.
Biological target: Yes-associated protein (YAP) (human (endogenous in EndoSCs of IUA patients)) (UniProt P46937)
Assay: co-IP; lysate of EndoSCs from IUA patients, MG-132 added 4 h before collection; YAP antibody at 4 °C overnight, Protein A + G Agarose beads at 4 °C for 12 h; Western blot

Chains of the proteins cited; added tags and fusions are not shown.
UniProt P46937: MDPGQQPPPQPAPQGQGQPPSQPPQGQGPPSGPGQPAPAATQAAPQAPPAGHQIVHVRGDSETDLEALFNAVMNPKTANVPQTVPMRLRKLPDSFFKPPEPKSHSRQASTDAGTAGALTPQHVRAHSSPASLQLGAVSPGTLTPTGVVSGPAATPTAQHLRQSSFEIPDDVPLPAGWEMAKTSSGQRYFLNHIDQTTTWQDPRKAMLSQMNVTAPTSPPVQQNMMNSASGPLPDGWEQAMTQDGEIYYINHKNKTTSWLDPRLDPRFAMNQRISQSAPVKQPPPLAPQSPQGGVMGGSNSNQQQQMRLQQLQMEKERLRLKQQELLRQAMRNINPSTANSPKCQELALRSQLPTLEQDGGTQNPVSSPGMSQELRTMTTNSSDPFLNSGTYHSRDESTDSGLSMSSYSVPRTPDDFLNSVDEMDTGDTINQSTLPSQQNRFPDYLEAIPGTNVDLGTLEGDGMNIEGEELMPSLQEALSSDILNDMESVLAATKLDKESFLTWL
UniProt Q5T4S7: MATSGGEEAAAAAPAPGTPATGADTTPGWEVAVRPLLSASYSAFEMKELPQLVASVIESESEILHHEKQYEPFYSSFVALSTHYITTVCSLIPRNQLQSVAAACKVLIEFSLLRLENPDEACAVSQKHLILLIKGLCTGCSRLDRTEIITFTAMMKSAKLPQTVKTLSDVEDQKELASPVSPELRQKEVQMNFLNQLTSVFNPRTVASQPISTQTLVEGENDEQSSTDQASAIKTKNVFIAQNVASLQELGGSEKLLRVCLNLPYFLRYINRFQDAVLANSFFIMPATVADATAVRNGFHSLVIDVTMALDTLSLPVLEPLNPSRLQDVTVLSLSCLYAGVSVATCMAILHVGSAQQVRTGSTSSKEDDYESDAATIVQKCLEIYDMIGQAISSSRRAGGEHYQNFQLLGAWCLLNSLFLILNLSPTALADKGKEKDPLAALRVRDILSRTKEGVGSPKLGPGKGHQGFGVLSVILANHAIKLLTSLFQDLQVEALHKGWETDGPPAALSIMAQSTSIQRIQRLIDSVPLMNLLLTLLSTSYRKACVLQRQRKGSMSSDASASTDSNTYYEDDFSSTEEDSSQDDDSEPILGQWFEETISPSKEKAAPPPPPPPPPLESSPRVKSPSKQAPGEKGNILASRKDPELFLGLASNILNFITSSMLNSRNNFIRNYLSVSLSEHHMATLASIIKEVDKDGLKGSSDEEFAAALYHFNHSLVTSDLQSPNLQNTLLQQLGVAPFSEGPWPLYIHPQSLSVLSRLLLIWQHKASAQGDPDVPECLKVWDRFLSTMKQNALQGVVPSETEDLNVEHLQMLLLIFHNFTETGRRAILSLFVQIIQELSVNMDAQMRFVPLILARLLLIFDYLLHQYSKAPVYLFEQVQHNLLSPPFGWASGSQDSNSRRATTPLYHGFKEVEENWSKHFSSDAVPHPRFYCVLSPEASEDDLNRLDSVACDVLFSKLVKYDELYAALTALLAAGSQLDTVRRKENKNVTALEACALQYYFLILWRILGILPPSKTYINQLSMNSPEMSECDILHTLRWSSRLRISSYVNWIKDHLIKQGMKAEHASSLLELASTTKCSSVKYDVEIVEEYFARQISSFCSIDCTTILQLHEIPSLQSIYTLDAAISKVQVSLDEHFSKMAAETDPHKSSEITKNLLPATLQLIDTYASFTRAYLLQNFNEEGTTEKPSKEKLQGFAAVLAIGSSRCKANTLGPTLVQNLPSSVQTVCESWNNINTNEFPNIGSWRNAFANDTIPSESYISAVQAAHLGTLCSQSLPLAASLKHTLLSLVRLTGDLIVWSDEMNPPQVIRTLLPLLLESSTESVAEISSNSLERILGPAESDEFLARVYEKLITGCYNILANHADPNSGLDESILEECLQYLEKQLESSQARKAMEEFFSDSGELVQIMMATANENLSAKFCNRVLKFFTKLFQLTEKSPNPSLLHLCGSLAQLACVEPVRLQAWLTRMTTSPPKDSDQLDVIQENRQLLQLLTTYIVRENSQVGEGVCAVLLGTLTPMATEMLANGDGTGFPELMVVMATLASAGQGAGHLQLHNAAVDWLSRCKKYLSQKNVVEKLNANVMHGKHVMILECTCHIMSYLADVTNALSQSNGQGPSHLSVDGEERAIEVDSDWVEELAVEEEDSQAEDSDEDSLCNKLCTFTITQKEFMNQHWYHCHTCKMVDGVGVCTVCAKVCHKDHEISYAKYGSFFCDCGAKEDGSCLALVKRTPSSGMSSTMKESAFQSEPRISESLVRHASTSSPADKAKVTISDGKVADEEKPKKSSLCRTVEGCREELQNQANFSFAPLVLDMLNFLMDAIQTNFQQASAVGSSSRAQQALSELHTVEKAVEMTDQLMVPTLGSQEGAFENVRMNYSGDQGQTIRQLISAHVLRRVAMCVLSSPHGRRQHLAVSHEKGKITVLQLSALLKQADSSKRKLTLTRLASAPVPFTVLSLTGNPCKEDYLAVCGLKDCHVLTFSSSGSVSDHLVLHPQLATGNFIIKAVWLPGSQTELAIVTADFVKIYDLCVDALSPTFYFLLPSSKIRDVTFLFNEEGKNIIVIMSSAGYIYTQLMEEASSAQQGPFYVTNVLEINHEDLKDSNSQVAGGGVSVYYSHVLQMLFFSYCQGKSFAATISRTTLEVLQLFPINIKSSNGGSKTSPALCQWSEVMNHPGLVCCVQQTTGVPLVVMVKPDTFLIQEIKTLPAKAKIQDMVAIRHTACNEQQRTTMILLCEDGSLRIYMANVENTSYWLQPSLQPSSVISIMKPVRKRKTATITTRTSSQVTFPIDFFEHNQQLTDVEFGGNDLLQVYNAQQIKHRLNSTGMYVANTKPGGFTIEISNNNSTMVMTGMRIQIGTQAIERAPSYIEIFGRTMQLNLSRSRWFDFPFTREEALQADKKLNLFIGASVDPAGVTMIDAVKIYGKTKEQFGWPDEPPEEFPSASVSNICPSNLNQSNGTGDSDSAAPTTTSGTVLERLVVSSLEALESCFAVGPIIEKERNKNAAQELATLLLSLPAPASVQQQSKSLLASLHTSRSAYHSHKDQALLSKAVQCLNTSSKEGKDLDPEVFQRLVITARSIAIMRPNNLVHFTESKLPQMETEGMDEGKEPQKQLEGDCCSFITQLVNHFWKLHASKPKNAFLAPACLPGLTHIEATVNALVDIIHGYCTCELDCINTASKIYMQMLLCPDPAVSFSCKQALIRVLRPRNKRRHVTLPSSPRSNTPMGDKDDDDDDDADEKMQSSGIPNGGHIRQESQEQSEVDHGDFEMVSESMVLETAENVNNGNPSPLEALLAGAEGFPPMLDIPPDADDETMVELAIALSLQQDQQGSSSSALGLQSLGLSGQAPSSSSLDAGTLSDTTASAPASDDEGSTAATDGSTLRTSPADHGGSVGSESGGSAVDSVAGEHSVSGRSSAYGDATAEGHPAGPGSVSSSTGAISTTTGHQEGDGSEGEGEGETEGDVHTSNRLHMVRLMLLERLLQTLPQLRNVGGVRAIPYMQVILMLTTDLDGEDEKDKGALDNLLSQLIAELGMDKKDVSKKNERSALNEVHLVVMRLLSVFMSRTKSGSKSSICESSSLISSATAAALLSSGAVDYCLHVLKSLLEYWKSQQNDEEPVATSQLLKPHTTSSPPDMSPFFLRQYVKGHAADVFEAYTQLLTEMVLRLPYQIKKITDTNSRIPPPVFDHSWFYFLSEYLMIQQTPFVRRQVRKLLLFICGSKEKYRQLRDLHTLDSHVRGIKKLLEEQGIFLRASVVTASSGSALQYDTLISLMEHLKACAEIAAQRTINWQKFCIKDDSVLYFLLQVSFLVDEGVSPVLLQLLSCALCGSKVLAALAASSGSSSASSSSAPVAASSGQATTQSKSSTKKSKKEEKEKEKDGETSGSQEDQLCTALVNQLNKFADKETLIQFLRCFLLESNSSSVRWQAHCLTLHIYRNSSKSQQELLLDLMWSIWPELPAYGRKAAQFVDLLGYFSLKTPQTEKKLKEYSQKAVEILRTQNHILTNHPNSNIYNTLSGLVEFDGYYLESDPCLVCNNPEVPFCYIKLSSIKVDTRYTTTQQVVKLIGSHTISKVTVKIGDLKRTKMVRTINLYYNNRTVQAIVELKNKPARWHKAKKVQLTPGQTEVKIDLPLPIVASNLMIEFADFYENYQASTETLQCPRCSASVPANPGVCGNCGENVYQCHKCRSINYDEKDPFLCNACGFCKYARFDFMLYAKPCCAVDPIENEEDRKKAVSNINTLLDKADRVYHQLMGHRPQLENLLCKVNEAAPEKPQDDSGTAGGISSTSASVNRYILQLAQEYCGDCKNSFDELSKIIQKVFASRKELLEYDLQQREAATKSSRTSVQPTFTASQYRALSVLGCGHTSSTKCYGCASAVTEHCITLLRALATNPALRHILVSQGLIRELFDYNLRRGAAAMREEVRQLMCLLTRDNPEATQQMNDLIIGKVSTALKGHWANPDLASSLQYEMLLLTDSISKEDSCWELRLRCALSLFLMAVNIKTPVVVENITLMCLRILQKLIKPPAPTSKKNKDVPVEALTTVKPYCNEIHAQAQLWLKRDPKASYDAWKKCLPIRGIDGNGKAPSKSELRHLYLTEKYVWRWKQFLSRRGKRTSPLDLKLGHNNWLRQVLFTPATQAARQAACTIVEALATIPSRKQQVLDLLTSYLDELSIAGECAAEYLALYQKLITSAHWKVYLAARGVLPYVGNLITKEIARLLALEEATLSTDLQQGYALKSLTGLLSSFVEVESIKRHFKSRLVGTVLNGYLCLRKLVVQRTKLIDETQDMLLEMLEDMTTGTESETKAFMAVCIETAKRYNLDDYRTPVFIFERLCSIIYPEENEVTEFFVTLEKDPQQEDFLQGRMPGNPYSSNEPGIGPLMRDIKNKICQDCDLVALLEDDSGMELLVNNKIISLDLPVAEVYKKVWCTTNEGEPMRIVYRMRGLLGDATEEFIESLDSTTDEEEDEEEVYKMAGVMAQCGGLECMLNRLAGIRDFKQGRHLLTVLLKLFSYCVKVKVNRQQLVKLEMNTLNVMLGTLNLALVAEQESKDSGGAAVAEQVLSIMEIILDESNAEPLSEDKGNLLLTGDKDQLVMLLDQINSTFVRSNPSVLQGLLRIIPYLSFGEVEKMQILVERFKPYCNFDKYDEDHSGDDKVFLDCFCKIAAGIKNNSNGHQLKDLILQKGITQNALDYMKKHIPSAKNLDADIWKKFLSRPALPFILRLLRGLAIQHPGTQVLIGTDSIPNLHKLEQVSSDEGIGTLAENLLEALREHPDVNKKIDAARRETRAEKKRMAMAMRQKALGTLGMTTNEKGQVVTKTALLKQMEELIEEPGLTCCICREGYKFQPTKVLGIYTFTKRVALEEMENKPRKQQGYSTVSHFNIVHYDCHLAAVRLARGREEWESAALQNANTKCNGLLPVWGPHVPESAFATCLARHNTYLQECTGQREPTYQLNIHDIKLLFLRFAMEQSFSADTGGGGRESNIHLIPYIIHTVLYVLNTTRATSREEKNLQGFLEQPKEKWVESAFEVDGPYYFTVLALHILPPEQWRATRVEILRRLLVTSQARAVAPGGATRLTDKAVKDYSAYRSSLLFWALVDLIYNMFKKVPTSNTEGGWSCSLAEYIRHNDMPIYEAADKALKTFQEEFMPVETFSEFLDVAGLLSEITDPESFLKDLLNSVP

## UBR4 (from UniProt Q5T4S7 1-5183)
  binding: binds
